Results as given in PubChem BioAssay AID2662 (National Center for Advancing Translational Sciences (NCATS), 2010).
Hit rate of the full screen: of about 290,000 compounds, about 110 (0.038%) were called active. This list was built around the results that the source calls inconclusive (neither active nor inactive); the mix of calls is not that of the screen. The call rests on the fitted dose curve; in most records, active means well fitted inhibition curve with a large enough effect in the polarisation, with a control signal flat (not every such curve was filed as active); inconclusive means small, poorly fitted or top-dose-only effect, or effect the other way, or a change in a side signal; inactive means no such curve, though single readings can be large or run the other way; the % refers to the polarisation. Potencies of inconclusive entries are doubtful fits and often do not repeat. A note “side channel” means that the fit belongs to a control or component signal, not to the main read-out.

Chains of the proteins cited; added tags and fusions are not shown.
UniProt Q03164, whole entry, looked up: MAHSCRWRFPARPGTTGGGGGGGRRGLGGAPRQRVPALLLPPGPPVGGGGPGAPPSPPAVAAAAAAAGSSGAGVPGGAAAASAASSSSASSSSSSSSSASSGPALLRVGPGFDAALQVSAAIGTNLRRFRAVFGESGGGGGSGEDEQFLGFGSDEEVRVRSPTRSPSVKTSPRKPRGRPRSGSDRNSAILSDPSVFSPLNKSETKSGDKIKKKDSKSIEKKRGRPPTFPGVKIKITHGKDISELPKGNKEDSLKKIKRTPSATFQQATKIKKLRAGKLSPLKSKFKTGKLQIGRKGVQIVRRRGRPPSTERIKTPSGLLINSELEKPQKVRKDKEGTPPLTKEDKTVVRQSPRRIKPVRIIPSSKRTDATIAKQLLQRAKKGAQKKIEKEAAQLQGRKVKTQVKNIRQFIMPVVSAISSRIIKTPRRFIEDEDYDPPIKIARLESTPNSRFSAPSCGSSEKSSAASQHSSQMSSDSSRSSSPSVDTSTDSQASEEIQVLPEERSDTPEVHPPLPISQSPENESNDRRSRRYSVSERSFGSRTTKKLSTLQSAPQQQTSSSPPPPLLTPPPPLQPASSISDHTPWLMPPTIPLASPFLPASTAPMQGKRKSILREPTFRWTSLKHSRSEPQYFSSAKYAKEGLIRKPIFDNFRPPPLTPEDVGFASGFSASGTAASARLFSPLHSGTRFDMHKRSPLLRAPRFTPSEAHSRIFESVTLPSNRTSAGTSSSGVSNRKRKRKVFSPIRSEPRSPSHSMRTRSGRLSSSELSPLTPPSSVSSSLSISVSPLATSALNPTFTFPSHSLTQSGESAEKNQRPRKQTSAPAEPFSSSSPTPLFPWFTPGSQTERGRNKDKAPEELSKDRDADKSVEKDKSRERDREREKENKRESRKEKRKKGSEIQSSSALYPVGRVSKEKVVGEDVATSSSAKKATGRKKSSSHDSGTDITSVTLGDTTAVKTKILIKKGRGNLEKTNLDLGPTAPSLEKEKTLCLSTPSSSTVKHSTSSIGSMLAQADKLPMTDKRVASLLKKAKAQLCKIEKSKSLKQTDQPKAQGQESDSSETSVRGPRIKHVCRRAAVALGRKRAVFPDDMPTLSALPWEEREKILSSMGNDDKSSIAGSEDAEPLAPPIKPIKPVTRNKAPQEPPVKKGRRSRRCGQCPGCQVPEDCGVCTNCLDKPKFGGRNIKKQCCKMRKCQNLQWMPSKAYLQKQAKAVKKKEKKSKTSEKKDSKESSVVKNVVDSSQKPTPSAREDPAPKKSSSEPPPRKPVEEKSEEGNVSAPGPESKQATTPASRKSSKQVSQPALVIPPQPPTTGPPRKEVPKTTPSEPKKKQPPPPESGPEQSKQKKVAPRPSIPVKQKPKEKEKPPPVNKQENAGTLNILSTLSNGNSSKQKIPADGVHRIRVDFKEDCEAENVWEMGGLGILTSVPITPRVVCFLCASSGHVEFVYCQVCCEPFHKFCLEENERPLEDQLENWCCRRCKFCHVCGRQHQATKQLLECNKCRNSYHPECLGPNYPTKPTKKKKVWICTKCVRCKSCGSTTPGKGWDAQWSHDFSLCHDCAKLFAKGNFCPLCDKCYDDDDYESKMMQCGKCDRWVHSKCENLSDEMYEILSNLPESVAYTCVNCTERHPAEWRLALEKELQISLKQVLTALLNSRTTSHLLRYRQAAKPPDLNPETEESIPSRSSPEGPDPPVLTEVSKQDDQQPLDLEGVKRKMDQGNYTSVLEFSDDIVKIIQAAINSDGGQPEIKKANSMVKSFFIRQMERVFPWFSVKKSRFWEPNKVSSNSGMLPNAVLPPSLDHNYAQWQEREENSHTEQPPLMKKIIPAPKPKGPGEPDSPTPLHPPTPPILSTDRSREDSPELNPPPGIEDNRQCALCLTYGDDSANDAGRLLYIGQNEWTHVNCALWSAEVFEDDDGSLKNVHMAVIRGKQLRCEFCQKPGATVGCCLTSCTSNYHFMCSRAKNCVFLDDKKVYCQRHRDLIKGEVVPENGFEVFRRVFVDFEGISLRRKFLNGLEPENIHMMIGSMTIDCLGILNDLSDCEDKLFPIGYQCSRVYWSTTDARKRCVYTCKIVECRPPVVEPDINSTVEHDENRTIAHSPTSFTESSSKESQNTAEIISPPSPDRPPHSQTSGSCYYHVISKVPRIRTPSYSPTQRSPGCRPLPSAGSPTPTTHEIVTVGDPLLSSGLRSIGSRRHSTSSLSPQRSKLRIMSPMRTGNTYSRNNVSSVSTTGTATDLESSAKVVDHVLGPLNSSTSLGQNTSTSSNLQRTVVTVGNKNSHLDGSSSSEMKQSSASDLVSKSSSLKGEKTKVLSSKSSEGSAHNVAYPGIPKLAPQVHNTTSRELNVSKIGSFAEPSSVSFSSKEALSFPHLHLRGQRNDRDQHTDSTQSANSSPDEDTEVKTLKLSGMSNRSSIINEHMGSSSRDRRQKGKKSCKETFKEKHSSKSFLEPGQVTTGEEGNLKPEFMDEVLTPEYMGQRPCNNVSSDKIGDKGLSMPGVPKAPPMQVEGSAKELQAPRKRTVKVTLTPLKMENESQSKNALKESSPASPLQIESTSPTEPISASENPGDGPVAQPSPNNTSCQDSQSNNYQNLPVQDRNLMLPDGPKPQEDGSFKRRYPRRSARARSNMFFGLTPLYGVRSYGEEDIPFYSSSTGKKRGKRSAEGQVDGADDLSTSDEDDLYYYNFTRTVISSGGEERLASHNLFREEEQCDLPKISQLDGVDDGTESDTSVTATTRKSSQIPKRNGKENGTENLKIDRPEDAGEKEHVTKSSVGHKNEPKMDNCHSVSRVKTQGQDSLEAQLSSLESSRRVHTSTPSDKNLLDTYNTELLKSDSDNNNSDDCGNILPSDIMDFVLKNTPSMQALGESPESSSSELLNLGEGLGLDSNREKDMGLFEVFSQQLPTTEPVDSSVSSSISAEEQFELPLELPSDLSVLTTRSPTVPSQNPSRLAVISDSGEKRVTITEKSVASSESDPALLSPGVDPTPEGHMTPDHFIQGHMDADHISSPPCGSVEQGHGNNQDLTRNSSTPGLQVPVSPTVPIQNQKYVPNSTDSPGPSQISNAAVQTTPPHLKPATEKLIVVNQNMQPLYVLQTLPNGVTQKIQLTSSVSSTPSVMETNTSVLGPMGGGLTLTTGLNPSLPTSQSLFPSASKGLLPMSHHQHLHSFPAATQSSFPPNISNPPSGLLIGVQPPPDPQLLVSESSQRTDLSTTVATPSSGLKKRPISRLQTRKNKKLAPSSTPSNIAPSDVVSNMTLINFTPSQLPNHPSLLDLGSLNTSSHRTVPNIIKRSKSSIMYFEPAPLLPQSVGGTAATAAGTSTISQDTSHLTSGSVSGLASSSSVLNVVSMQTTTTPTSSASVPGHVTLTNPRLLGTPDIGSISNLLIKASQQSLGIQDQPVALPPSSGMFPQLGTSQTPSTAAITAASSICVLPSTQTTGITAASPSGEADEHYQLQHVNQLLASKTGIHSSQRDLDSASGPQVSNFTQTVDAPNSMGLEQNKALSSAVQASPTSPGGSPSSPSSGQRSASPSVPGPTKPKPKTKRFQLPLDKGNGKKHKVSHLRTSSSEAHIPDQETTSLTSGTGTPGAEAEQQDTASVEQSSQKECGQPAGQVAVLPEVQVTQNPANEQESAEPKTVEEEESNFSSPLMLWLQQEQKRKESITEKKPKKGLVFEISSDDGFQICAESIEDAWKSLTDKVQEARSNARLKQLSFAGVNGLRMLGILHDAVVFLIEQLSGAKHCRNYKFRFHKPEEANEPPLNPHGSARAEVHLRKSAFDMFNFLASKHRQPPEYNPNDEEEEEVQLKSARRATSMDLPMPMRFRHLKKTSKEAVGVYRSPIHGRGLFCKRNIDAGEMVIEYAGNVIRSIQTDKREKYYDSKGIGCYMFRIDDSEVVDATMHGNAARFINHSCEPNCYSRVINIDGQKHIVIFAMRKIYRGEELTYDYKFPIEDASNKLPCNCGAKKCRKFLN

molecular target: Histone-lysine N-methyltransferase 2A (Homo sapiens) (UniProt Q03164); assay: qHTS Fluorescence Polarization Assay for Inhibitors of MLL CXXC domain - DNA interaction; conditions: MLL-CXXC / FITC-HOXA9 DNA fluorescence polarization; activity change, negative = inhibition: at 115 µM (top of the series)
Outline: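 Purified MLL-CXXC (added from a 7 uM solution) was preincubated 5 min at ambient with pinned compounds in 50 mM Tris-HCl pH 7.5, 50 mM NaCl, 1 mM DTT, 0.05% BSA. Fluorescein-labeled HOX-A9 DNA (50 nM solution) followed, 30 min, then polarization read.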
Potency means the concentration at half of the fitted maximal effect.

| Structure (SMILES) | Potency | activity change, negative = inhibition |
| --- | --- | --- |
| CN1C(=O)/C(=C2\SC(N)=NC2=O)c2ccccc21 | inconclusive: 39.8 µM [quencher, side channel, single point] |  |
| O=C(CN1CCN(c2ccc(O)cc2)CC1)N1CCc2ccccc21 |  | inactive: 1.02% |
| CCOC(=O)/C(C#N)=C/c1ccc(N2CCCCC2)cc1 | inconclusive: 63.1 µM [fluorescent, side channel, single point] |  |
| N#CC1=C(N)Oc2c(oc(CO)cc2=O)C1c1ccccc1[N+](=O)[O-] (stereo not given) | inconclusive: 70.8 µM [inhibitor, single point] |  |
| COc1ccc2nc(SCC(=O)Nc3ccc(S(=O)(=O)N4CCCC4)cc3)c(C#N)cc2c1 |  | inactive: 27.6% |
| CCOc1cc(/C=C2\N=C3CCCCCN3C2=O)ccc1O | inconclusive: 31.6 µM [fluorescent, partial curve] |  |
| CCN(CC)C(CNC(=O)c1cc(=O)[nH]c2ccccc12)c1ccccc1Cl (stereo not given) | inconclusive: 70.8 µM [fluorescent, side channel, single point] |  |
| O=C(Nc1ccc(C2SCCS2)cc1)c1ccccc1 |  | inactive: -21.2% |
| COc1ccc(C2=Nc3ccc(Br)cc3C(c3ccccc3)N2CC(=O)NN)cc1 (stereo not given) |  | inactive: 3.32% |
| CCC(C)[C@H](NC(=O)N1CC(=O)Nc2ccccc21)C(=O)N1CCC[C@@H]1C(=O)O (stereo not given in full) | inconclusive: 63.1 µM [fluorescent, side channel, single point] |  |
| COc1cccc(/C=N/N2C(=O)CSC2=S)c1O |  | inactive: -3.09% |
| CC(C)(C(N)=O)c1ccccc1 | inconclusive: 44.7 µM [fluorescent, side channel, single point] |  |
| CC(=O)n1cc(/C=C2/N=C(c3ccccc3)OC2=O)c2ccccc21 | inconclusive: 39.8 µM [fluorescent, side channel, partial curve] |  |
| O=C(Cn1c(=O)c(=O)n(Cc2ccccc2)c2ccc(Cl)cc21)Nc1ccc(F)cc1F | inconclusive: 35.5 µM [fluorescent, side channel, partial curve] |  |
| CC(C)(C)c1ccc(Cn2nc(CC(=O)O)c3ccccc3c2=O)cc1 | inconclusive: 12.6 µM [inhibitor, full curve, poor fit] |  |
| CNS(=O)(=O)c1cc(C(=O)NCc2ccco2)ccc1Cl |  | inactive: 3.61% |
| CC1CCN(CC(O)COCCOc2ccc(Br)cc2)CC1 (stereo not given) | inconclusive: 44.7 µM [quencher, side channel, single point] |  |
| COc1ccc(-c2cc(C(F)F)n3ncc(C(=O)Nc4cccc(S(=O)(=O)N5CCOCC5)c4)c3n2)cc1 | inconclusive: 70.8 µM [inhibitor, single point] |  |
| Nc1[nH]n(-c2ccccc2)c(=O)c1N=Nc1ccc2ncsc2c1 | inconclusive: 44.7 µM [quencher, side channel, partial curve] |  |

| Structure (SMILES) | Potency | activity change, negative = inhibition |
| --- | --- | --- |
| COCCCNC(=O)/C(C#N)=C/c1c(N2CCN(c3ccc(OC)cc3)CC2)nc2c(C)cccn2c1=O |  | inactive: 2.06% |
| Cc1cc(N/N=C/c2cccc(Cl)c2)nc(-n2nc(C)cc2C)n1 |  | inactive: 14.6% |
| COc1ccc(C(C[N+](=O)[O-])c2c(C)[nH]n(-c3ccccc3)c2=O)cc1 (stereo not given) | inconclusive: 1.58 µM [inhibitor, full curve, poor fit] |  |
| COCCNC(=O)/C(C#N)=C/c1c(N2CCN(c3ccccc3)CC2)nc2c(C)cccn2c1=O | inconclusive: 100 µM [fluorescent, side channel, single point] |  |
| NC(=O)c1ccc[n+](CC(=O)Nc2ccccc2C(=O)O)c1 | inconclusive: 7.94 µM [fluorescent, side channel, single point] |  |
| COc1ccc(C(=O)Nc2cccc3c2CCCC3)cc1 |  | inactive: 8.87% |
| O=[N+]([O-])c1ccc(-c2cn3nc(-c4ccccc4)c(-c4ccccc4)nc3n2)cc1 | inconclusive: 44.7 µM [fluorescent, single point] |  |
| CCN(Cc1ccccc1)S(=O)(=O)c1ccc(C(=O)Nc2nnc(C)o2)cc1 | inconclusive: 14.1 µM [fluorescent, side channel, single point] |  |
| O=c1[nH]c(S)c(/C=C2\C=Nc3ccccc32)s1 | active: 35.5 µM |  |
| COCCCN1CN(S(=O)(=O)c2ccc(C)cc2C)c2nc3ccccc3nc21 |  | inactive: -5.34% |
| Cc1ccc(S(=O)(=O)Nc2cc(C)c(O)c(S(=O)(=O)c3ccc(C)cc3)c2)cc1 |  | inactive: -12.2% |
| Cc1ccc2oc(=O)c(/C=C(\O)c3cccs3)nc2c1 | inconclusive: 63.1 µM [fluorescent, side channel, single point] |  |
| CC(C)C(=O)NCCCc1ccccc1 | inconclusive: 10 µM [fluorescent, side channel, full curve] |  |
| CCN(CC)c1ccc2cc(C#N)c(=O)oc2c1 | inconclusive: 35.5 µM [fluorescent, side channel, partial curve] |  |
| CCN(CC)c1ccc2cc(C(=O)NNC(=O)c3ccc(S(=O)(=O)N4CCCCC4)cc3)c(=O)oc2c1 | inconclusive: 12.6 µM [fluorescent, side channel, full curve] |  |
| O=C(/C=C/c1c(F)cccc1Cl)Nc1ccc(S(=O)(=O)Nc2ncccn2)cc1 | inconclusive: 11.2 µM [fluorescent, side channel, single point] |  |
| CC(=O)N1C=Cc2c(c(C)c3c([nH]c4ccccc43)c2C)C1 | inconclusive: 28.2 µM [quencher, side channel, partial curve] |  |
| N#CCc1ccc(NC(=O)/C=C/c2ccc([N+](=O)[O-])o2)cc1 | inconclusive: 50.1 µM [fluorescent, side channel, partial curve] |  |
| Cc1c(C(C)C)c(=O)n(-c2ccc(S(=O)(=O)NC(C)C)cc2)n1C | inconclusive: 14.1 µM [inhibitor, single point] |  |
| COc1ccc(OC)c(/C=C2\SC(=S)N(Cc3cccnc3)C2=O)c1 | inconclusive: 28.2 µM [fluorescent, side channel, partial curve, poor fit] |  |

| Structure (SMILES) | Potency | activity change, negative = inhibition |
| --- | --- | --- |
| CC(=O)CC(c1ccccc1)S(=O)(=O)c1ccc([N+](=O)[O-])cc1 (stereo not given) | inconclusive: 89.1 µM [fluorescent, side channel, single point] |  |
| Cc1cc(N=Cc2c(O)ccc3ccccc23)no1 |  | inactive: 1.27% |
| Cc1ccc(C2C(C#N)=C(N)Oc3c2sc2ccccc32)o1 (stereo not given) | inconclusive: 56.2 µM [fluorescent, side channel, partial curve] |  |
| COc1ccc(Cc2nc3ccc(C(=O)NC4CCOC4)cc3o2)cc1 (stereo not given) | inconclusive: 35.5 µM [fluorescent, side channel, partial curve, poor fit] |  |
| Cc1cc(C(=O)O)ccc1-c1ccc(/C=C2\SC(=O)N(CC(=O)Nc3ccc4c(c3)OCO4)C2=O)o1 | inconclusive: 31.6 µM [fluorescent, partial curve] |  |
| C=CCn1c(SCC(=O)Nc2c(C)n(C)n(-c3ccccc3)c2=O)nc2scc(-c3ccccc3)c2c1=O | inconclusive: 44.7 µM [quencher, side channel, single point] |  |
| COc1ccc(OC)c(NC(=S)N2CCN(Cc3ccccc3)CC2)c1 | inconclusive: 1.41 µM [fluorescent, side channel, full curve] |  |
| COc1ccc2ccccc2c1-c1sc(Nc2ccccc2)n[n+]1-c1ccc(F)cc1 | inconclusive: 39.8 µM [quencher, side channel, partial curve] |  |
| O=C(O)CN(c1ccccc1)C1SC(=O)NC1=O (stereo not given) |  | inactive: 4.41% |
| Cc1n[nH]c(=O)c2c(NC(=O)CSc3nnc(-c4ccncc4)n3C)oc(C)c12 |  | inactive: -0.164% |
| COc1ccc2c(CC(=O)N[C@@H](Cc3ccccc3)C(=O)O)cc(=O)oc2c1 |  | inactive: 6.58% |
| CCN(CC)c1ccc2cc(C(=O)NCc3ccc(F)cc3)c(=N)oc2c1 | inconclusive: 35.5 µM [fluorescent, side channel, partial curve] |  |
| O=c1c2ccccc2[nH]c2ccc(F)cc12 |  | inactive: 12.9% |
| COc1cccc(/C(O)=C2\C(=O)C(=O)N(c3ccccn3)C2c2cccc(OC)c2OC)c1 (stereo not given) | inconclusive: 15.8 µM [inhibitor, single point] |  |
| CC(NC(=S)NNS(=O)(=O)c1cccc([N+](=O)[O-])c1)c1ccccc1 (stereo not given) | inconclusive: 8.91 µM [fluorescent, side channel, partial curve] |  |
| O=C1C2C3C=CC(C3)C2C(=O)N1c1ccc(S(=O)(=O)Nc2nccs2)cc1 (stereo not given) | inconclusive: 15.8 µM [inhibitor, single point] |  |
| COc1ccc(-c2cc3c(=O)n(CC(=O)N4CCCCC4)ncn3n2)cc1 | inconclusive: 1.41 µM [quencher, side channel, full curve, poor fit] |  |
| CN(C)c1ccc(NC(=O)COC(=O)c2cc(Cl)ccc2[N+](=O)[O-])cc1 | inconclusive: 15.8 µM [quencher, side channel, single point] |  |
| O=C(CN(C(=O)CNC(=O)c1cccs1)c1ccccc1F)NC1CCCCC1 | inconclusive: 14.1 µM [fluorescent, side channel, single point] |  |
| Cc1cc(-c2ccccc2)nc(N/N=C/c2ccc([N+](=O)[O-])cc2)n1 | inconclusive: 70.8 µM [quencher, side channel, single point] |  |

Some of the entries above in another layout.
Structure (SMILES)	Potency	activity change, negative = inhibition
Cc1cc(N=Cc2c(O)ccc3ccccc23)no1		inactive: 1.27%
Cc1ccc(C2C(C#N)=C(N)Oc3c2sc2ccccc32)o1 (stereo not given)	inconclusive: 56.2 µM [fluorescent, side channel, partial curve]	
COc1ccc(Cc2nc3ccc(C(=O)NC4CCOC4)cc3o2)cc1 (stereo not given)	inconclusive: 35.5 µM [fluorescent, side channel, partial curve, poor fit]	
Cc1cc(C(=O)O)ccc1-c1ccc(/C=C2\SC(=O)N(CC(=O)Nc3ccc4c(c3)OCO4)C2=O)o1	inconclusive: 31.6 µM [fluorescent, partial curve]	
C=CCn1c(SCC(=O)Nc2c(C)n(C)n(-c3ccccc3)c2=O)nc2scc(-c3ccccc3)c2c1=O	inconclusive: 44.7 µM [quencher, side channel, single point]	
COc1ccc(OC)c(NC(=S)N2CCN(Cc3ccccc3)CC2)c1	inconclusive: 1.41 µM [fluorescent, side channel, full curve]	
COc1ccc2ccccc2c1-c1sc(Nc2ccccc2)n[n+]1-c1ccc(F)cc1	inconclusive: 39.8 µM [quencher, side channel, partial curve]	
COc1ccc2c(CC(=O)N[C@@H](Cc3ccccc3)C(=O)O)cc(=O)oc2c1		inactive: 6.58%
CCN(CC)c1ccc2cc(C(=O)NCc3ccc(F)cc3)c(=N)oc2c1	inconclusive: 35.5 µM [fluorescent, side channel, partial curve]	
O=c1c2ccccc2[nH]c2ccc(F)cc12		inactive: 12.9%
COc1cccc(/C(O)=C2\C(=O)C(=O)N(c3ccccn3)C2c2cccc(OC)c2OC)c1 (stereo not given)	inconclusive: 15.8 µM [inhibitor, single point]	
CC(NC(=S)NNS(=O)(=O)c1cccc([N+](=O)[O-])c1)c1ccccc1 (stereo not given)	inconclusive: 8.91 µM [fluorescent, side channel, partial curve]	
O=C1C2C3C=CC(C3)C2C(=O)N1c1ccc(S(=O)(=O)Nc2nccs2)cc1 (stereo not given)	inconclusive: 15.8 µM [inhibitor, single point]	
CN(C)c1ccc(NC(=O)COC(=O)c2cc(Cl)ccc2[N+](=O)[O-])cc1	inconclusive: 15.8 µM [quencher, side channel, single point]	
O=C(CN(C(=O)CNC(=O)c1cccs1)c1ccccc1F)NC1CCCCC1	inconclusive: 14.1 µM [fluorescent, side channel, single point]	
Cc1cc(-c2ccccc2)nc(N/N=C/c2ccc([N+](=O)[O-])cc2)n1	inconclusive: 70.8 µM [quencher, side channel, single point]	
